{
  "source": "patent US10722599B2",
  "about": "(Yissum Research Development Company of the Hebrew …, priority 2015, dated 2020)",
  "assay": "general procedure: Fmoc solid-phase peptide synthesis; Rink Amide MBHA; HATU/HOBt",
  "key": {"[1]": {"conditions": "whole synthesis, scale 0.3 mmol"}},
  "data": [
    {"substance": "DSG-Suc-Glu4", "values": [
      {"measurement": "step yield", "setting": "purification step, on 246 mg crude portion", "value": 67, "unit": "%"},
      {"measurement": "crude mass", "setting": "[1]", "value": 369, "unit": "mg"},
      {"measurement": "crude yield", "setting": "[1]", "value": 99, "unit": "%"}
    ]}
  ]
}
